The target of this experiment is PYL5 (6×His-tagged) (Arabidopsis thaliana) (UniProt Q9FLB1). Kind of experiment: SEC; size exclusion chromatography of purified PYL9 and PYL5; both purified.

No constants are given. Whether binding was seen depends on the method and setting. Sequences can lack the tags named with a protein.

B1: PYL5 (6×His-tagged) (receptor, UniProt Q9FLB1 1-203)
chain: MRSPVQLQHGSDATNGFHTLQPHDQTDGPIKRVCLTRGMHVPEHVAMHHTHDVGPDQCCSSVVQMIHAPPESVWALVRRFDNPKVYKNFIRQCRIVQGDGLHVGDLREVMVVSGLPAVSSTERLEILDEERHVISFSVVGGDHRLKNYRSVTTLHASDDEGTVVVESYIVDVPPGNTEEETLSFVDTIVRCNLQSLARSTNRQ
Regarding B1, the binding result is “no binding”.

Values taken from publication PMC3699650, “Structural Insights into the Abscisic Acid Stereospecificity by the ABA Receptors PYR/PYL/RCAR” (PLoS ONE, 2013).
